Experimental findings from PubChem BioAssay AID2685 (National Center for Advancing Translational Sciences (NCATS), 2010) are described below.

Structures are written as SMILES. The list shows a part of the results. Further columns of the screen follow, without active or inactive calls. Compounds called inactive in the main read-out are mostly missing here. Potencies come from curve fits of mixed quality, noted in brackets.

A short description of the experiment: qHTS Assay for Lipid Storage Modulators in Drosophila S3 Cells.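 As to cell number change: cells counted by Cell Tracker Red CMTPX staining in the red channel.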 Particulars: BODIPY lipid droplet fluorescence, 18-24 h; for cell number change: measured here: cell count max response, cells fed with added oleic acid. An outline of the steps: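 Drosophila S3 cells got compounds at several concentrations plus oleic acid (400 uM solution). Laser-scanning cytometry with 488 nm excitation read lipid droplets at 500-530 nm and cells at 575-640 nm. Percent activity was relative to 20 uM Triacsin C.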
Background: Quantitative high-throughput screening tests each substance at several concentrations.

[1] abbreviates: measured here: lipid fluorescence (Fed channel) AC50, cells fed with added oleic acid.
Setting [2] is: measured here: cell number channel AC50, cells fed with added oleic acid.

A word on the AC50: it is the concentration at which the activity in the assay is half-maximal. A high value points to activity only at high concentration. For the compound `Cc1cc(N2C(=O)C(O)=C(C(=O)c3ccco3)C2c2cccnc2)no1` (stereo not given), the cell number change was -12.5%. Further, the AC50 under setting [1] is 1.16 µM [falling, full curve].

In the case of `C=CCOc1ccc(/C(O)=C2\C(=O)C(=O)N(CCCOC)C2c2ccc(O)c(OC)c2)cc1` (stereo not given), the cell number change is 133%. Also, the AC50 under setting [2] is 29.1 µM [rising, partial curve]. The AC50 under setting [1] is 0.103 µM [rising, partial curve, poor fit].

Consider `Cc1ccc(NC(=O)CCc2nc3sc4c(c3c(=O)[nH]2)CCCC4)c(Br)c1`, for which the cell number change stood at 23.5%.

On to `COC(=O)C(C)N(C(=O)c1cccc2ccccc12)c1c(C)cccc1C` (stereo not given), for which the cell number change was -49.4%. Moreover, the AC50 under setting [1] was 1.84 µM [falling, partial curve].

Take `Cc1ccc(S(=O)(=O)NCCC(=O)NCC(c2cccs2)N(C)C)cc1` (stereo not given): the cell number change was -2.33%. Besides, under setting [1], the AC50 is 0.00461 µM [rising, full curve, poor fit].

For `O=C(Nc1c2c(nn1-c1ccccc1)CS(=O)(=O)C2)c1ccccc1C(F)(F)F`, the cell number change is -13.6%. In addition, under setting [1], the AC50 was 0.00461 µM [falling, full curve, poor fit].

Take `COc1ccc(NC(=O)COC(=O)CN2C(=O)c3ccccc3C2=O)cc1`: the cell number change was determined as 0.173%. Besides, under setting [1], the AC50 was 4.61 µM [falling, single point].

For the compound `Cn1nc(C(=O)NCc2ccccc2Cl)c2c1-c1ccccc1S(=O)(=O)C2`, the cell number change was found to be 92.1%. Also, the AC50 under setting [2] is 29.1 µM [rising, single point]. Also, the half-maximal activity concentration (AC50) under setting [1] is 20.6 µM [rising, single point].

As to `Cc1cc2cc(CNC(=O)c3ccc(Br)o3)ccc2n1C`, the cell number change was -19%. Further, the AC50 under setting [1] is 18.4 µM [falling, single point].

With `COc1ccc(COC(=O)C2CCN(S(=O)(=O)c3cccs3)CC2)cc1`, the cell number change came out at 64.3%. Under setting [2], the AC50 is 13 µM [rising, partial curve, poor fit]. The AC50 under setting [1] is 29.1 µM [rising, partial curve].

As for `CCc1nnc(NS(=O)(=O)c2ccc(N/C=C/C(=O)c3ccc(C)cc3)cc2)s1`, the cell number change was -4.25%. The AC50 under setting [1] was 0.731 µM [falling, full curve].

As to `COc1ccc(CS(=O)(=O)/C(Cl)=C(/Cl)C(=O)Nc2ccc(OC)nc2)cc1`, the cell number change was -76.4%. For the same compound, the AC50 under setting [2] is 13 µM [falling, partial curve]. Also, under setting [1], the AC50 is 11.6 µM [falling, partial curve].

As for `Cc1ccc(C(=O)CSc2nc3cccnc3n2C)cc1`, the cell number change is -114%. The concentration at half-maximal activity (AC50) under setting [2] was 32.6 µM [falling, partial curve].

For the compound `Cc1nnc(SCC(=O)Nc2nc(-c3ccccc3)cs2)n1N`, the cell number change is 15.6%. Under setting [1], the concentration at half-maximal activity (AC50) was 0.82 µM [rising, full curve, poor fit].

As for `COC(=O)c1sc2ccccc2c1NC(=O)c1ccc(S(=O)(=O)N2CCCCC2)cc1`, the cell number change is -6.12%.

On to `Cc1cc(C(=O)OCC(=O)N(C)C2CCS(=O)(=O)C2)c(C)n1-c1ccccc1` (stereo not given), for which the cell number change was 3.01%. Also, the AC50 under setting [1] is 1.16 µM [falling, partial curve].

For the compound `O=C(CCl)N1CCN(CC(=O)N2CCCC2)CC1`, the cell number change turned out to be 7.91%. For the same compound, the AC50 under setting [1] is 9.2 µM [rising, partial curve].

On to `CNC(=O)c1nc(C)n(-c2cc(Cl)cc(Cl)c2)n1`, for which the AC50 under setting [1] was 0.92 µM [falling, partial curve, poor fit].

On to `CC(C)(C)c1cc(C(=O)C[n+]2ccc(C(=O)NCCCO)cc2)cc(C(C)(C)C)c1O`, for which the cell number change is -36.6%. Also, the AC50 under setting [2] was 0.326 µM [falling, full curve]. Under setting [1], the AC50 was 14.6 µM [falling, partial curve].

Turning to `CNC(=O)c1ccc(=O)n(Cc2cccc(C(F)(F)F)c2)c1`, the cell number change is -23%. The AC50 under setting [1] is 18.4 µM [rising, single point].

With `O=S(=O)(Cc1cc(N2CCOCC2)nc(-c2ccccn2)n1)c1ccccc1`, the cell number change came to 0.678%. Moreover, the AC50 under setting [2] is 6.51 µM [falling, single point].

As for `[O-][n+]1onc2c1C(N1CCOCC1)CCC2N1CCOCC1` (stereo not given), the cell number change is -67.4%. Under setting [2], the concentration at half-maximal activity (AC50) was 0.461 µM [falling, full curve]. The concentration at half-maximal activity (AC50) under setting [1] was 4.11 µM [falling, full curve].

Turning to `COc1cccc(OC)c1NC(=O)CN1CCN(C)CC1`, the cell number change is -19.6%. Moreover, the half-maximal activity concentration (AC50) under setting [1] is 20.6 µM [falling, single point].

As for `C#CCNc1nc(C(C)C)nc2c1nnn2Cc1ccccc1F`, the cell number change is -21.1%. Also, the concentration at half-maximal activity (AC50) under setting [1] is 0.58 µM [rising, full curve, poor fit].

Consider `COc1ccc(-c2nnc(NC(=O)c3ccccc3C)o2)cc1`, for which the cell number change was -59.4%. The AC50 under setting [2] is 23.1 µM [falling, partial curve, poor fit]. The AC50 under setting [1] is 16.4 µM [falling, partial curve].

Consider `CCN(CC)c1nc2c(c(=O)[nH]c(=O)n2C)n1CCOc1ccccc1`, for which the cell number change is -16.1%.

In the case of `CC(C)[C@H](NS(=O)(=O)c1ccc2c(c1)OCCO2)C(=O)OCC(=O)Nc1cc(Cl)ccc1Cl`, the cell number change is -14.4%. Moreover, the half-maximal activity concentration (AC50) under setting [1] was 20.6 µM [falling, single point].

Regarding `CC1=Nc2cc(C(=O)NCCCN3CCOCC3)ccc2Sc2c(C)ccc(C)c21`, the cell number change is 2.75%. For the same compound, the half-maximal activity concentration (AC50) under setting [1] was 4.11 µM [rising, single point].

Turning to `COCCN(CCOC)C(=S)Nc1cc(S(=O)(=O)N(C)C)ccc1C`, the cell number change turned out to be 80.6%. For the same compound, under setting [2], the AC50 was 32.6 µM [rising, partial curve, poor fit]. Also, the AC50 under setting [1] is 0.00461 µM [rising, full curve, poor fit].

As to `NS(=O)(=O)c1ccc(NC(=S)N2CCN(c3cccc(Cl)c3)CC2)cc1`, the cell number change was -13.6%.

As for `CCOc1ccc(-n2c(=O)[nH]c3sc4c(c3c2=O)CCCC4)cc1`, the cell number change was determined as 8.09%. Moreover, under setting [2], the AC50 is 0.146 µM [falling, full curve, poor fit].

Take `CCOc1cccc(-c2c(C(=O)N/N=C/c3ccc(C)s3)nnn2-c2nonc2N)c1`: the cell number change is -23.3%. Moreover, the AC50 under setting [2] was 2.91 µM [falling, partial curve, poor fit]. The AC50 under setting [1] is 6.51 µM [falling, partial curve].

On to `Cc1ccc(C(=O)C2=C(O)C(=O)N(Cc3cccnc3)C2c2ccc(Cl)c(Cl)c2)o1` (stereo not given), for which the cell number change was -1.28%.

As to `COc1ccccc1/C=C1/SC(=S)N(CCC(=O)Nc2cccnc2)C1=O`, the cell number change worked out at 34.6%. The concentration at half-maximal activity (AC50) under setting [2] was 0.146 µM [rising, full curve, poor fit].

On to `CCc1ccc(NC(=O)COC(=O)C2(c3ccc(Cl)cc3)CCCC2)cc1`, for which the cell number change is -25.8%. The half-maximal activity concentration (AC50) under setting [1] was 6.51 µM [falling, partial curve].

Turning to `COc1ccc(/C(N)=N/OC(=O)Cc2ccc(C)cc2)cc1`, the cell number change stood at 24.7%. The AC50 under setting [1] is 0.092 µM [falling, single point].
